## Library screen at single concentrations

Sequences of proteins named here, by UniProt entry; tags and fusion partners are left off.
UniProt P9WFT3, whole entry: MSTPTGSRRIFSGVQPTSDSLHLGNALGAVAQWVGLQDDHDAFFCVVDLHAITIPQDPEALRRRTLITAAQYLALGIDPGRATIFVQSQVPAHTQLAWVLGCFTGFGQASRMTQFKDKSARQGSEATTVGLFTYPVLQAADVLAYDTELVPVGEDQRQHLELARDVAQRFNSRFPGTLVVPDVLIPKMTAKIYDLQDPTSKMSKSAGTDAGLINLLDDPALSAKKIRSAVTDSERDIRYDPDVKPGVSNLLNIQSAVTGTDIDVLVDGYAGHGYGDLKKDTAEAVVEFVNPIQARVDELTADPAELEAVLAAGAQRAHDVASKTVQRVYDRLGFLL
UniProt P9WNZ1, whole entry: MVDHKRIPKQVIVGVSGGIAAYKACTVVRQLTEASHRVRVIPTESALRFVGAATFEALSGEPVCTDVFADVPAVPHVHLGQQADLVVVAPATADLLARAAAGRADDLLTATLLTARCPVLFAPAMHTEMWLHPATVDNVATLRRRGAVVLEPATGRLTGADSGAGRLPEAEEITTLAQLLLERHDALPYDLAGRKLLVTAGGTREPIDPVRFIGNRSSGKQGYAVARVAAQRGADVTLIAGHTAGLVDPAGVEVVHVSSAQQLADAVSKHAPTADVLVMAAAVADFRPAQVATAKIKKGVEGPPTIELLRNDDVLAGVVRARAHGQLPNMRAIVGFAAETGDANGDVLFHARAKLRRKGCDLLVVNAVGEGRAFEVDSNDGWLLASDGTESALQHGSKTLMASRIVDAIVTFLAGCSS
UniProt P9WPC5, whole entry: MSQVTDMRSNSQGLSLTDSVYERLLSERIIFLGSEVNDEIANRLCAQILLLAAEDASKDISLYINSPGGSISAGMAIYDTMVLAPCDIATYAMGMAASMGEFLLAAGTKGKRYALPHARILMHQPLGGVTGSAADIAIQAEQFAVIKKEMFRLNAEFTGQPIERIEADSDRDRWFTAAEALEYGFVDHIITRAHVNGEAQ
UniProt P9WPC3, whole entry partner: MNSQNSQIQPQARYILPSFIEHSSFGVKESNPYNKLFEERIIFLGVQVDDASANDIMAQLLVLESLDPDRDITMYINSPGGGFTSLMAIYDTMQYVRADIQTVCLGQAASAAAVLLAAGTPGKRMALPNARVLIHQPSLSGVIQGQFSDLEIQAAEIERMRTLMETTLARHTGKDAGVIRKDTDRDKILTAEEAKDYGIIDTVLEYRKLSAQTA

A: 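Enzyme assay of tryptophanyl-tRNA synthetase; the read-out is not stated. Target: Tryptophan-tRNA ligase, Mycobacterium tuberculosis (UniProt P9WFT3). Concentration: 10 µM. Higher most likely means stronger inhibition; the record gives no direction and few retests gave an IC50. About 65,000 compounds were tested under these conditions; 0.098% (about 64) showed 50% or more at least once.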
B: 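Enzyme assay of CoaBC with a phosphate dye (Biomol Green) read at 650 nm. Target: Coenzyme A biosynthesis protein CoaBC, Mycobacterium tuberculosis (UniProt P9WNZ1). Compounds at 30 µM. Higher reads as stronger inhibition, judged from the few compounds that gave an IC50. Most strong results did not repeat in a second test. About 67,000 compounds were tested under these conditions; 0.06% (about 40) showed 50% or more at least once.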
C: 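Protease assay of ClpP1P2, read by the AMC dye that it sets free. Target: ClpP1P2, Mycobacterium tuberculosis (UniProt P9WPC5 and UniProt P9WPC3). Concentration: 50 µM. Higher reads as stronger inhibition, judged from the few compounds that gave an IC50. Most other retested compounds had strongly negative values. Of about 69,000 compounds tested this way, about 10 (0.015%) reached 50% or more in at least one test.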

Results are given as percent effect. The record does not define 0% and 100%; most values in the screen are far below 50% and negative numbers occur (in some assays of this library far below -100). This is an unselected part of the compounds tested.

CN(C)C(=O)N1CCc2onc(C(=O)Nc3cccnc3)c2C1 read A: -5.416%; B: 2.29%; C: -4.239%. For Cc1ccc(NC(=O)CN[C@H](C(N)=O)C(C)C)cc1F the result was A: -1.891%; B: -2.822%; C: 12.42%. CCn1cc(CNc2ccc(F)c(F)c2)cn1 gave A: -7.599%; B: -1.493%; C: -8.149%. CC(C)CNC(=O)[C@H]1CCS(=O)(=O)[C@@H]2CN(Cc3ccc(F)cc3)C[C@H]12 read A: 2.632%; B: 4.691%; C: -9.513%.

O=C(c1cnc(-c2cnccn2)s1)N1CCCC1Cn1cccn1 (stereo unspecified) read A: -4.875%; B: 4.348%; C: -11.56%. Cn1cc(CN2CCC3(CCCN(C(=O)c4cnccn4)C3)C2)cn1 (stereo unspecified) gave A: -2.876%; B: 5.882%; C: -10.1%. NC(=O)C1CCN(c2ccc(C(=O)N3CCc4ccccc43)cn2)C1 (stereo unspecified) gave A: -2.313%; B: 4.906%; C: 0.2059%. O=C1CN(C(=O)C2CN(c3cccc(Cl)c3)CCO2)CCN1 (stereo unspecified) gave A: -2.211%; B: -3.417%; C: -10.17%.

O=C(c1ccsc1)N1CCc2nnc(COc3cncnc3)n2CC1 read A: 29.97%; B: 12.92%; C: 8.915%. Cc1cc(C)n(CCNC(=O)c2ncc[nH]2)c(=O)n1 gave A: -1.407%; B: 2.122%; C: -14.52%. Result for Cc1nc(C)n(CC2CCCN2Cc2coc(-c3cccs3)n2)n1 (stereo unspecified) was A: 5.398%; B: 4.738%; C: -4.256%. Result for COc1ccc(NC(=O)N(C)Cc2ccc(Br)o2)cn1 was A: -3.772%; B: -5.785%; C: -5.184%.

With CCS(=O)(=O)N(C)C1CCN(C(=O)c2ccc(C)c(C)c2)CC1 the screen gave A: -6.989%; B: 9.127%; C: 2.232%. Result for O=C(COCC1CC1)Nc1cc(S(=O)(=O)NC2CC2)ccc1F was A: 0.09139%; B: 0%; C: -14.01%. Fc1cccc(NCc2ncc[nH]2)c1 read A: -6.067%; B: 10.68%; C: -30.07%. C[C@]1(O)CN(CCO)CC[C@@H]1Oc1cccc(F)c1 gave B: 2.913%; C: -10.83%.

Result for COC(=O)CN(C(=O)c1ccc(Cl)cn1)c1cccc(F)c1 was A: -2.42%; B: -0.7426%; C: -12.51%. For CN(Cc1cc(Br)cn1C)C(=O)c1cccnc1 the result was A: 1.727%; B: 3.313%; C: 0.3379%. Cc1ccnc(NC(=O)C2CCN(CCCn3ccnc3C)CC2)c1 gave A: -1.611%; B: 2.778%; C: 1.587%. Result for c1ccc2nc(N3CCCCC3)c(NCc3nnc4n3CCC4)nc2c1 was A: -5.045%; B: -3.024%; C: 5.155%.

For c1ncn(Cc2nnc(C3CCN(CC4CC4)CC3)n2C2CC2)n1 the result was A: 0.3268%; B: 1.272%; C: -12.34%. Result for Cc1nc(N2CCCC2)ccc1NCc1ccccn1 was A: 6.684%; B: 6.274%; C: -840%. For O=C(NCCCn1nc2ccccn2c1=O)NC1CCC(O)CC1 (stereo unspecified) the result was A: -5.916%; B: -8.316%; C: 7.327%. CC(C)(C)c1cc(NC(=O)CN2CCC(N3CCNC3=O)CC2)on1 read A: 14.82%; B: -13.4%; C: -11.72%.

For CO[C@@H]1CN(c2ccccc2)S(=O)(=O)[C@@]12CCN(CC1CC1)C2 the result was B: -0.7264%; C: -2.246%. With CNS(=O)(=O)CCn1cc(-c2cc3c(cc2OC)CCC3)nn1 the screen gave A: -3.307%; B: 0.5115%; C: -12.03%. For COc1ccc(Br)c(C(=O)NCC2CCN(S(=O)(=O)C3CC3)CC2)c1 the result was A: -1.497%; B: 15.57%; C: -1.694%. With CCN1CC(C(=O)NCc2ccnc(-n3ccnc3C)c2)CC1=O (stereo unspecified) the screen gave A: 3.635%; B: -18.55%; C: -3.997%.

O=C(N1CCCO1)[C@@]12CCO[C@@H]1CCN(Cc1ccccn1)C2 read A: -4.521%; B: -9.248%; C: -13.84%. For CC(C)N(Cc1cccnc1)C(=O)CSc1ccc(C#N)cc1 the result was A: -1.56%; B: -8.058%; C: -2.23%. Result for CCOc1ccc(CC(CNC(=O)c2sccc2C)C(N)=O)cc1 (stereo unspecified) was A: 1.546%; B: 0.6479%; C: 0.8457%. CN(CC(=O)NCc1ccccn1)CC1CCCN1c1cccnn1 (stereo unspecified) gave A: -2.627%; B: 2.277%; C: -11.18%.

CSc1ccc(CNC(=O)Cc2c(C)n[nH]c2C)cc1 read A: -1.089%; B: 2.542%; C: -4.465%. N#CCCCS(=O)(=O)NC1(c2ccc(F)cc2)CC1 read A: -1.768%; B: -1.58%; C: -13.56%. With Cc1nc(CN2CC[C@@H]3[C@@H](CCC(=O)N3CCc3c[nH]cn3)C2)co1 the screen gave A: -4.31%; B: -0.8485%; C: -12.46%. Result for O=c1[nH]ncc(NCCOc2ccc3c(c2)OCO3)c1Cl was A: -2.993%; B: 10.27%; C: 6.197%.

Once more, the final 4:

{"compound": "CSc1ccc(CNC(=O)Cc2c(C)n[nH]c2C)cc1", "A": -1.089, "B": 2.542, "C": -4.465}
{"compound": "N#CCCCS(=O)(=O)NC1(c2ccc(F)cc2)CC1", "A": -1.768, "B": -1.58, "C": -13.56}
{"compound": "Cc1nc(CN2CC[C@@H]3[C@@H](CCC(=O)N3CCc3c[nH]cn3)C2)co1", "A": -4.31, "B": -0.8485, "C": -12.46}
{"compound": "O=c1[nH]ncc(NCCOc2ccc3c(c2)OCO3)c1Cl", "A": -2.993, "B": 10.27, "C": 6.197}

Data taken from ChEMBL document CHEMBL3988442, “University of Dundee, Small-Polar-MMV Screening Library” (2021).